Results are given in words; binding and its absence hold for the method and conditions named. In cells and extracts the contact can be indirect. Some binding calls cover weakened binding; strength is not graded here.

By UniProt entry, the sequences of proteins in these tests, tags left out. Residues count along the entry.
UniProt Q13586, residues 23-685: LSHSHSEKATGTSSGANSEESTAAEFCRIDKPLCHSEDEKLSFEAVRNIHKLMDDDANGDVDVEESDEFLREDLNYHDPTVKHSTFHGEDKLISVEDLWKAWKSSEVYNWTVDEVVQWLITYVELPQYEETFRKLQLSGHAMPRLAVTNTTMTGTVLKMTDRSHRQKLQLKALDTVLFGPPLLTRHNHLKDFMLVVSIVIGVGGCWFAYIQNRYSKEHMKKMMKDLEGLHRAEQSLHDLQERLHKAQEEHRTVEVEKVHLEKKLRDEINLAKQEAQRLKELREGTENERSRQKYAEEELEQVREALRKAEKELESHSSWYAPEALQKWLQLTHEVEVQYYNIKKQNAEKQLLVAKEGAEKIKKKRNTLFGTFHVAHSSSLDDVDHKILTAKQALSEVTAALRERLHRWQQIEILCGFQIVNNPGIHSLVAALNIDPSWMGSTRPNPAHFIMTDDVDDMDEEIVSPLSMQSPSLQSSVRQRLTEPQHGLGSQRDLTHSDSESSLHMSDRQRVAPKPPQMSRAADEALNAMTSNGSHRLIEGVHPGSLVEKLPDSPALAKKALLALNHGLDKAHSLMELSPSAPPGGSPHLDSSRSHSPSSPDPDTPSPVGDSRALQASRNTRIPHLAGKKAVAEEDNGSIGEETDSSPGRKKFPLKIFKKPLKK

For this assay, the target named is PKC-γ, full length, FLAG-tagged (UniProt P05129). In words: co-IP; HEK293 cells co-transfected with myc-Stim1 and flag-tagged PKC-β or PKC-γ; lysis buffer with 1% NP 40 and protease cocktail; PKC precipitated, Stim1 detected.

For the substance “stromal interaction molecule 1 (Stim1), 3xmyc-tagged (from UniProt Q13586-1 23-685)”, the binding entry was “binds”.

The values above are taken from article PMC9042968.
